The record followed here is patent US20210238281A1.

The chains behind the UniProt entries cited, without tags or fusion partners. Residues count along the entry.
UniProt Q61885, residues 29-156: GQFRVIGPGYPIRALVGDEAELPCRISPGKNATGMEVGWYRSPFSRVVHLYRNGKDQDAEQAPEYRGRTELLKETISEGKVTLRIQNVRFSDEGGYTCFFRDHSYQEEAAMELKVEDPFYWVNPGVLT
UniProt Q16653, residues 30-154: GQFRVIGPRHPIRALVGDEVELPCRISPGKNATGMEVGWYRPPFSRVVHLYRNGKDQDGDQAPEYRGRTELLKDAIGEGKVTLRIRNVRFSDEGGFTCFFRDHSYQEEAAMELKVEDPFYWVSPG

These are yes or no findings as the source states them, for the method shown. Some binding calls cover weakened binding; strength is not graded here.

Assay [1] deals with recombinant murine MOG protein (murine) (UniProt Q61885). As to the kind of experiment: phage-scFv ELISA, compared with phage-scFv-8-18C5 positive control. For orientation: An ELISA detects its analyte on a solid surface through an enzyme-linked reagent.
The target in assay [2] is recombinant human MOG protein (human) (UniProt Q16653). Described as above.

B1: anti-MOG MO3I-30 antibody (scFv, V domains shown)
VH: EVQLLESGGGLVQPGGSLRLSCVASGFTFRSYWMHWVRQDPGEGLVWVSRVSGDGSSTNYADSVKGRFVISRDNAKDTLYLQMYSLRGEDTAVYYCLRGNDGYGNFDYWGQGTTVTVSS
VL: DVVMTQSPLSLPVTLGQPASISCRPSQSLVYSDGNTYLNWFQQRPGQSPRRLIYKVSNRDYVVPDRFSGSGSGTDFTLKISRVEAEDVGVYYCMQGTHWPLTFGGGTKVEIK
Consider B1, for which the binding result in assay [1] and in assay [2] was “binds” each time.

B2: anti-MOG MO3I-69 antibody (scFv, V domains shown)
VH: DQVQLVQSGAEVKPGASVKVSCKASGYTFTYYYLHWVRQAPGQGLEWMGWINPNSGATIFAQKFQGRVTLTRDTSISTAYLDLSRLRSDDTAVYYCARASMAYQYHSDVDYWGLGTLVTVSS
VL: QSVLTQPPSVSGAPGQRVTISCTGSSSNIGAGYDVHWYQQLPGTAPKLLIYGNSNRPSGVPDRFSGSKSGTSASLAITGLQAEDEADYYCQSYDSSLVVFGGGTKLTVL
As to B2, the binding entry in assay [1] and in assay [2] was “binds” in each case.

B3: anti-MOG MO3I-63 antibody (scFv, V domains shown)
VH: QVQLVQSGAEVKTPGASVKISCKASGYAFTSYAMHWVRAPGQGLEWMGWINAANANTKYSQRFQGRVTITRDTSASTAYMELNSLRSEDTAVYYCASSEDISRSNYYNYYMDVWGKGTTVTVSS
VL: DIVMTQSPSSLSASVGDRVTITCRASQTITTSLAWFQHRPGKAPKLLIYSASSLQSGVPSRFSGSGSGTDFTLTISSLQPEDFATYSCQQTYSAPPTFGGGTKVEIK
With B3, the binding result in assay [1] and in assay [2] was “binds” throughout.

B4: anti-MOG MO3I-33 antibody (scFv, V domains shown)
VH: DQVQLVQSGAEVKPGATVKISCKVSGYTFTDYYMHWVQQAPGKGLEWMGLVDPEDGETIYAEKFQGRVTITADTSTDTAYMELSSLRSEDTAVYYCATSYHGTSGFDYWGQGTLVTVSS
VL: QSVVTQPPSVSGAPGQRVTIACTGSNSDIGAGHDVHWYQQFPRTAPKLIIFGNTNRPSGVPDRFSGSKSGTSASLVITGLQADDEADYHCQSYDNNLSGPIFGGGTKLTVL
Consider B4, for which the binding entry in assay [1] and in assay [2] was “binds” each time.

B5: anti-MOG MO3I-60 antibody (scFv, V domains shown)
VH: EVQLVESGGGLVKPGGSLGLSCAASGFTFTNAWGHWVRQAPGKGLEWVGRIKSKTDGGTTDYAAPVKDRFSISRDDSKNTLYLQMNSPTTEDTAVYYCATENGMDIVTTFDSWGQGTLVTVSS
VL: AIRMTQSPSSLSASVGDRVTITCRASQSIGSYLSWYRQKPGKAPKLLIYDSSTLQSGVASRFSGSGSGTDFTLTISALQPEDFATYYCHQSYRTPLSFGGGTKVEIK
B5: the binding entry in assay [1] and in assay [2] was “binds” throughout.

B6: anti-MOG MO4H-118 antibody (scFv, V domains shown)
VH: EVQLVQSGAEVKKPGASVKVSCKVSGYTLTELSMHWVRQAPGKGLEWMGGFDPEDGETIYAQKFQGRVTMTEDTSTDTAYMELSSLRSEDTAVYYCATIGPKVAAHTYYFDYWGQGTLVTVSS
VL: DIQLTQSPSSLSASVGDRVTITCRASQTIVTYLNWYQQKPGKAPNLLITDASSLQSGVPSRFSGTESGTDFTLTISSLQPEDFGSYYCQSYMNPITFGQGTRLEIN
Regarding B6, the binding entry in assay [1] and in assay [2] was “binds” throughout.

B7: anti-MOG MO3I-57 antibody (scFv, V domains shown)
VH: QVQLVQSGAEVKKPGASVKVSCKASGYTFSSYGISWVRQAPGQGLEWMGWISANTGNTDYAERLQGRVTMTTDTSTTTAYMELRSLRSDDTAVYYCARGAPNGYAVDYWGQGTLVTVSS
VL: QSVLTQPPSASGAPGQRVSISCSGSSSNIGTNHVYWYQQFTGMAPKLIIDTNNQRPPGVPARFSGSKSGTSASLAISGLRSEDESDYYCLTWDDGLYDWVFGGGTKLTVL
Regarding B7, the binding result in assay [1] and in assay [2] was “binds” in each case.
